Reference: the supplement of paper PMC10331698
± gives the standard deviation of the averaged measurements. Most entries show no effect beyond the scatter of the controls.

Key:
Test in all cases: level (log10 ratio to DMSO vehicle control); higher = higher biomarker level / cell amount than vehicle control
Heptafluorobutyl iodide = compound: FC(F)(F)C(F)(F)C(F)(F)CI [Heptafluorobutyl iodide]; conditions: 2200 nM; in DMSO
Protocol: (§1)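 BioMAP Diversity Plus panel of 12 human primary cell co-culture systems (3C, 4H, LPS, SAg, BT, BF4T, BE3C, CASM3C, HDF3CGF, KF3CT, MyoF, Mphg). Compounds were added 1 h before stimulation and left for 24 h (MyoF 48 h; BT 72 h for soluble read-outs or 6 d for IgG). Biomarkers were read by ELISA, cytotoxicity by SRB, PBMC viability and proliferation by Alamar Blue. Each well value was divided by the mean of 8 DMSO control wells on the same plate and log10 transformed; duplicate blinded samples were tested at 4 concentrations.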

[1] = compound: C=C(C)C(=O)OCC(F)(F)C(F)(F)C(F)(F)C(F)(F)C(F)(F)C(F)(F)C(F)(F)F; conditions: in DMSO
Protocol: as §1

[2] = compound: O=S(=O)(F)C(F)(F)C(F)(F)C(F)(F)C(F)(F)C(F)(F)C(F)(F)C(F)(F)C(F)(F)F [Perfluorooctanesulfonyl fluoride]; conditions: 2200 nM; in DMSO
Protocol: as §1

[3] = compound: O=S(=O)(O)C(F)(F)C(F)(F)C(F)(F)C(F)(F)C(F)(F)C(F)(F)C(F)(F)C(F)(F)F [Potassium perfluorooctanesulfonate]; conditions: 2200 nM; in DMSO
Protocol: as §1

[4] = compound: O=C(O)C(F)(F)C(F)(F)C(F)F [4H-Perfluorobutanoic acid]; conditions: in DMSO
Protocol: as §1

Pentafluoropropionamide = compound: NC(=O)C(F)(F)C(F)(F)F [Pentafluoropropionamide]; conditions: 2200 nM; in DMSO
Protocol: as §1

[5] = compound: NC(=O)C(F)(F)C(F)(F)C(F)(F)C(F)F; conditions: in DMSO
Protocol: as §1

[6] = compound: OCCCCC(F)(F)C(F)(F)C(F)(F)C(F)(F)F [4:4 Fluorotelomer alcohol]; conditions: 2200 nM; in DMSO
Protocol: as §1

[7] = compound: COC(=O)C(F)(F)C(F)(F)OC(F)(C(F)(F)F)C(F)(F)OC(F)=C(F)F [Methyl perfluoro(3-(1-ethenyloxypropan-2-yloxy)propanoate)]; conditions: in DMSO
Protocol: as §1

[8] = compound: O=P(O)(O)CCC(F)(F)C(F)(F)C(F)(F)C(F)(F)C(F)(F)C(F)(F)F [2-(Perfluorohexyl)ethylphosphonic acid]; conditions: 2200 nM; in DMSO
Protocol: as §1

[9] = compound: O=S(=O)(OCC(F)(F)F)C(F)(F)C(F)(F)C(F)(F)C(F)(F)F [2,2,2-Trifluoroethyl perfluorobutanesulfonate]; conditions: 2200 nM; in DMSO
Protocol: as §1

[10] = compound: OCC(F)(F)C(F)(F)C(F)(F)C(F)(F)C(F)(F)C(F)F [1H,1H,7H-Dodecafluoro-1-heptanol]; conditions: 2200 nM; in DMSO
Protocol: as §1

[11] = compound: C=CC(=O)OCC(F)(F)C(F)(F)C(F)(F)C(F)(F)C(F)(F)C(F)(F)C(F)(F)F [1H,1H-Perfluorooctyl acrylate]; conditions: 2200 nM; in DMSO
Protocol: as §1

[12] = compound: NS(=O)(=O)C(F)(F)C(F)(F)C(F)(F)C(F)(F)C(F)(F)C(F)(F)C(F)(F)C(F)(F)F [Perfluorooctanesulfonamide]; conditions: in DMSO
Protocol: as §1

[13] = compound: CO[Si](C)(CCC(F)(F)C(F)(F)C(F)(F)C(F)(F)C(F)(F)C(F)(F)F)OC [Dimethoxymethyl((perfluorohexyl)ethyl)silane]; conditions: in DMSO
Protocol: as §1

[14] = compound: C=CC(F)(F)C(F)(F)C(F)(F)C(F)(F)C(F)(F)C(F)(F)C(F)(F)C(F)(F)C=C [1,8-Divinylperfluorooctane]; conditions: in DMSO
Protocol: as §1

[15] = compound: O=S(=O)(O)C(F)(F)C(F)(F)C(F)(F)C(F)(F)C(F)(F)C(F)(F)C(F)(F)C(F)(F)F [Perfluorooctanesulfonic acid]; conditions: 2200 nM; in DMSO
Protocol: as §1

[16] = compound: FC(F)(F)C(F)(F)C(F)(F)CC1CO1 [1H,1H-Heptafluorobutyl epoxide]; conditions: 2200 nM; in DMSO
Protocol: as §1

Row | Test System | level (log10) (Heptafluorobutyl iodide) | level (log10) ([1]; 740 nM) | level (log10) ([1]; 2200 nM) | level (log10) [2] | level (log10) [3] | level (log10) ([4]; 2200 nM) | level (log10) ([4]; 6700 nM) | level (log10) ([4]; 20000 nM) | level (log10) ([4]; 60000 nM) | level (log10) (Pentafluoropropionamide) | level (log10) ([5]; 2200 nM) | level (log10) ([5]; 6700 nM) | level (log10) ([5]; 20000 nM) | level (log10) ([5]; 60000 nM) | level (log10) [6] | level (log10) ([7]; 740 nM) | level (log10) ([7]; 2200 nM) | level (log10) [8] | level (log10) [9] | level (log10) [10] | level (log10) [11] | level (log10) ([12]; 2200 nM) | level (log10) ([12]; 6700 nM) | level (log10) ([12]; 20000 nM) | level (log10) ([13]; 740 nM) | level (log10) ([13]; 2200 nM) | level (log10) ([14]; 740 nM) | level (log10) ([14]; 2200 nM) | level (log10) [15] | level (log10) [16]
1 | 3C:CD106/VCAM-1 | -0.0005 ± 0.0092 | -0.001 ± 0.0085 | -0.001 ± 0.016 | 0.003 ± 0.014 | -0.0065 ± 0.0021 | -0.0005 ± 0.011 | -0.0075 ± 0.04 | -0.0265 ± 0.005 | 0.006 ± 0.0028 | 0.003 ± 0.0014 | -0.015 ± 0.034 | -0.001 ± 0.024 | 0.0135 ± 0.0021 | 0.007 ± 0.016 | -0.0135 ± 0.023 | 0.001 ± 0.028 | -0.007 ± 0.018 | 0.004 ± 0.021 | -0.008 ± 0.011 | 0.001 ± 0.0014 | -0.0095 ± 0.042 | 0 ± 0.0028 | -0.0005 ± 0.012 | 0.003 ± 0.013 | -0.0185 ± 0.011 | -0.0175 ± 0.021 | -0.005 ± 0.0028 | -0.0205 ± 0.016 | -0.0025 ± 0.018 | -0.0185 ± 0.016
2 | lMphg:CD62E/E-Selectin | 0.0025 ± 0.047 | -0.0065 ± 0.0078 | -0.013 ± 0.018 | -0.0055 ± 0.012 | -0.025 ± 0.028 | 0.0115 ± 0.019 | -0.012 ± 0.0028 | 0.0025 ± 0.0092 | 0.0145 ± 0.0064 | -0.0075 ± 0.025 | -0.0165 ± 0.043 | -0.011 ± 0.038 | -0.021 ± 0.076 | -0.037 ± 0.078 | -0.0065 ± 0.057 | 0.027 ± 0.0014 | 0.0195 ± 0.0078 | 0.003 ± 0.041 | 0.0175 ± 0.052 | -0.0245 ± 0.0092 | -0.0065 ± 0.025 | -0.067 ± 0.076 | -0.118 ± 0.041 | -0.125 ± 0.0057 | -0.0105 ± 0.0064 | -0.018 ± 0.013 | -0.006 ± 0.028 | -0.013 ± 0.021 | 0.0155 ± 0.074 | 0.004 ± 0.031
3 | 4H:CD87/uPAR | 0.0145 ± 0.00071 | 0 ± 0.011 | -0.015 ± 0.0057 | 0.0195 ± 0.052 | 0.0605 ± 0.057 | -0.0095 ± 0.011 | -0.0265 ± 0.025 | -0.0065 ± 0.0035 | -0.004 ± 0.044 | 0.0095 ± 0.023 | 0.0305 ± 0.0092 | 0.0335 ± 0.013 | 0.044 ± 0.033 | 0.006 ± 0.038 | -0.0195 ± 0.012 | 0.006 ± 0.086 | 0.0005 ± 0.019 | -0.0315 ± 0.013 | 0.0175 ± 0.037 | -0.0175 ± 0.033 | 0.0025 ± 0.046 | 0.037 ± 0.0071 | 0.0155 ± 0.0064 | -0.026 ± 0.028 | 0.014 ± 0.045 | -0.0105 ± 0.021 | 0.0095 ± 0.022 | -0.029 ± 0.027 | 0.079 ± 0.069 | -0.042 ± 0.095
4 | BE3C:tPA | 0.0065 ± 0.0092 | 0.018 ± 0.0028 | -0.0205 ± 0.015 | -0.009 ± 0.057 | 0.122 ± 0.016 | 0 ± 0.0028 | -0.016 ± 0.0014 | -0.0305 ± 0.012 | -0.006 ± 0.016 | -0.0025 ± 0.00071 | -0.0075 ± 0.022 | -0.008 ± 0.0028 | -0.0275 ± 0.016 | -0.0235 ± 0.0021 | 0.005 ± 0.018 | -0.056 ± 0.031 | -0.118 ± 0.023 | -0.0385 ± 0.019 | -0.001 ± 0.0028 | 0.0025 ± 0.021 | -0.0135 ± 0.0035 | 0.0715 ± 0.044 | 0.0025 ± 0.035 | -0.058 ± 0.055 | 0.0015 ± 0.03 | -0.026 ± 0.021 | 0.0005 ± 0.005 | -0.0045 ± 0.021 | 0.106 ± 0.056 | 0.012 ± 0.038
5 | SAg:CXCL8/IL-8 | -0.017 ± 0.0071 | 0.022 ± 0.05 | -0.0165 ± 0.046 | 0.0145 ± 0.026 | -0.001 ± 0.027 | 0.022 ± 0.04 | -0.0325 ± 0.03 | -0.0065 ± 0.022 | 0.025 ± 0.098 | 0.01 ± 0.033 | 0.032 ± 0.058 | -0.0055 ± 0.037 | 0.0075 ± 0.015 | 0.0055 ± 0.018 | 0.0125 ± 0.063 | -0.013 ± 0.12 | -0.0405 ± 0.074 | 0.005 ± 0.11 | 0.0235 ± 0.015 | 0.017 ± 0.016 | 0.0395 ± 0.036 | 0.034 ± 0.0057 | -0.0015 ± 0.005 | -0.0505 ± 0.03 | 0.0085 ± 0.043 | -0.0065 ± 0.00071 | 0.0265 ± 0.044 | -0.0115 ± 0.0035 | -0.0015 ± 0.04 | 0.0135 ± 0.061
6 | KF3CT:CXCL9/MIG | 0.001 ± 0.0042 | 0.0015 ± 0.018 | 0.0085 ± 0.021 | -0.0005 ± 0.0035 | 0.007 ± 0.0042 | 0.004 ± 0.0071 | -0.004 ± 0.016 | -0.011 ± 0.011 | -0.007 ± 0.0071 | -0.007 ± 0.0057 | 0.0135 ± 0.021 | 0.019 ± 0.018 | 0.006 ± 0.02 | 0.0145 ± 0.0078 | 0.0125 ± 0.005 | -0.001 ± 0.0042 | 0.009 ± 0.0099 | 0 ± 0.023 | 0.0305 ± 0.026 | 0.006 ± 0.0028 | 0.0085 ± 0.00071 | 0.0005 ± 0.00071 | 0.0075 ± 0.0035 | -0.032 ± 0.034 | -0.0095 ± 0.016 | -0.004 ± 0.0042 | -0.005 ± 0.0042 | -0.003 ± 0.0042 | 0.005 ± 0.0071 | -0.0005 ± 0.012
7 | BT:B cell Proliferation | 0.025 ± 0.024 | -0.0095 ± 0.011 | -0.006 ± 0.023 | -0.0065 ± 0.033 | 0.025 ± 0.0085 | 0.025 ± 0.059 | 0.016 ± 0.0099 | 0.0055 ± 0.019 | 0.0065 ± 0.036 | 0.004 ± 0.013 | 0.039 ± 0.011 | 0.0115 ± 0.0092 | -0.001 | 0.0215 ± 0.0092 | 0.015 ± 0.013 | 0.034 ± 0.03 | 0.0145 ± 0.029 | 0.0285 ± 0.016 | -0.0025 ± 0.00071 | -0.0135 ± 0.0035 | 0.0095 ± 0.042 | 0.0255 ± 0.018 | 0.0205 ± 0.0064 | 0.024 ± 0.028 | 0.0185 ± 0.016 | -0.0025 ± 0.012 | 0.0125 ± 0.029 | -0.0025 ± 0.059 | 0.0235 ± 0.025 | 0.0155 ± 0.035
